Here are results for four substances from publication PMC9675737.

Chains of the proteins cited; added tags and fusions are not shown.
UniProt O60825: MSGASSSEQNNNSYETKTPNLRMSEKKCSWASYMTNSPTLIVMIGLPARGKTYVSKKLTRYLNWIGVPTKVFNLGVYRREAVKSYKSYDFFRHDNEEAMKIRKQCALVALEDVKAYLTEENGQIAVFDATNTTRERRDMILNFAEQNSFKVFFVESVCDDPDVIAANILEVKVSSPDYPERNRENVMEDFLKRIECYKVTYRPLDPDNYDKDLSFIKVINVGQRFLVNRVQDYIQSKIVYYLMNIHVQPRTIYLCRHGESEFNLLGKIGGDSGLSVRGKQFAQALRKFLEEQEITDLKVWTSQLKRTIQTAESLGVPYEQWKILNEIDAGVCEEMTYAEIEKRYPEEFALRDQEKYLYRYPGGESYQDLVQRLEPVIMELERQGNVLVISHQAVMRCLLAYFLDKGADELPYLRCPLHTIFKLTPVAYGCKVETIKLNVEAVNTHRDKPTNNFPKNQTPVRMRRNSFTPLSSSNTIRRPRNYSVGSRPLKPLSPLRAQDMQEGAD
UniProt P31946: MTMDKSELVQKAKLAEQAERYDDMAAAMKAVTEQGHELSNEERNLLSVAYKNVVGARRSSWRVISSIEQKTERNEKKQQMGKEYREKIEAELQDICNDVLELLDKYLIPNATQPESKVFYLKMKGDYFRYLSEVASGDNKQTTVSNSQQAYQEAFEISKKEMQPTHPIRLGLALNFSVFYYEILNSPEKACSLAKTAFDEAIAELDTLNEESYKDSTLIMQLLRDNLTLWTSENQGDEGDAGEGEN
UniProt Q16875: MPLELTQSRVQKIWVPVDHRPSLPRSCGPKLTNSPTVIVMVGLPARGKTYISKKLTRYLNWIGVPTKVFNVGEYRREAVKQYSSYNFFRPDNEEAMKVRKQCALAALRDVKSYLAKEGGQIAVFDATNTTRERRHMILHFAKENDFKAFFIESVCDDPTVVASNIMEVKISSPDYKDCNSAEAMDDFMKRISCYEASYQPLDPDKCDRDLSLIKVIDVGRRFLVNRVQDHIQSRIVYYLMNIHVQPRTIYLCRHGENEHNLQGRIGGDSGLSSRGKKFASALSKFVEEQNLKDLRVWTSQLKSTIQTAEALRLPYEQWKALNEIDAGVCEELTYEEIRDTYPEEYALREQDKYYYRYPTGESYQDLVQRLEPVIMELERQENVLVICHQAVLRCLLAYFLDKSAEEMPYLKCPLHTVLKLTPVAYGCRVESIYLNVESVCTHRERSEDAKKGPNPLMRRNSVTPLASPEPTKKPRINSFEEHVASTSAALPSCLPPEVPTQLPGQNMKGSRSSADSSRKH

Results are given in words; binding and its absence hold for the method and conditions named. For some of these results: Binding seen in cells or lysates may run through a third protein. Some binding calls cover weakened binding; strength is not graded here.

Assay [1] concerns the target His-tagged PFKFB2 (human) (UniProt O60825). As to the kind of experiment: pull-down; His-tagged PFKFB2 complexes isolated on cobalt IMAC Dynabeads from NRAS^Q61 and BRAF^V600E mutant melanoma cells, control, GS, sorafenib; immunoblot. On the technique in general: A western blot detects proteins with antibodies after separation by electrophoresis.
Assay [2] has the same target. Put plainly: co-IP + pull-down; reciprocal and consecutive isolation of Flag-PFKFB3 (anti-Flag M2 affinity gel, eluted with Flag peptide) and His-PFKFB2 (His-tag pull-down) from doubly infected NRAS^Q61 mutant cells, 4 h GS; immunoblot.
In another assay the target is recombinant PFKFB2 (UniProt O60825). As to the kind of experiment: co-IP; recombinant PFKFB2 and PFKFB3 incubated in 50 mM NaCl, 50 mM Tris pH 7.4, 1 mM EDTA, 1% NP-40, 30 min at 30 °C, then PFKFB2 or PFKFB3 immunoprecipitation; immunoblot; both purified.

Consider 14-3-3β (from UniProt P31946 1-246), for which, in assay [1], the binding result was “binds”.

As for “Flag-PFKFB3 (from UniProt Q16875 1-520) (enzyme)”, the binding result in assay [2] is “binds”.

Take “PFKFB3 (endogenous) (from UniProt Q16875 1-520) (enzyme)”: in assay [1], the binding entry is “binds”.

Take “recombinant PFKFB3 (from UniProt Q16875 1-520) (enzyme)”: in the assay with recombinant PFKFB2, the binding entry is recorded as “binds”.
